This note sets out measurements from article PMC7819943, “Rice protein-binding microarrays: a tool to detect cis-acting elements near promoter regions in rice”.

Sequences of proteins named here, by UniProt entry; tags and fusion partners are left off.
UniProt Q0JBA9, entry or part of it: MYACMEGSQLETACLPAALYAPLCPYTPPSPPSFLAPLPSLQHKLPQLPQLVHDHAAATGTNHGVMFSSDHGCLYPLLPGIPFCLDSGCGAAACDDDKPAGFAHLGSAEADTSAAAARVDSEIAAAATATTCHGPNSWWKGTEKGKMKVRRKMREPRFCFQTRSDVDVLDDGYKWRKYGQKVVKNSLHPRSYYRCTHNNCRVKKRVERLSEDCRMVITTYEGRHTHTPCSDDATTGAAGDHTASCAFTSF

This is one part of the list.

In the test the target is OsWRKY34 (Oryza sativa, UniProt Q0JBA9 1-250). In words: protein-binding microarray (RPBM); PBS, 2% BSA, 51.3 ng/ul salmon testes DNA, 50 uM zinc acetate, 200 nM TF, 25 C, 1 h; high values mean tight binding. The following applies: protein: recombinant; tags: N-terminal polyhistidine and DsRed monomer fusion (pET32a); label: CyDye5-dUTP incorporated in the synthesized complementary strand; 3' TTTTT single-stranded linker to array surface; dsDNA, one strand shown. The essentials: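 For the binding signal, per-feature fluorescence intensity was read in arbitrary units on an Axon 4000B scanner. Before scanning, a 2% BSA-blocked custom Agilent array made double-stranded with Cy5-dUTP was washed after 1 h at 25 °C with 200 nM protein and 50 µM zinc acetate. The proteins were Ni–NTA-purified transcription factors with N-terminal polyhistidine and DsRed fusions, expressed in E. coli BL21-CodonPlus.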
As for “CATTGTTCGTGACCTCCCCAACTTTCCCACGGGCGGCCACCGGAGTCACCTAGTGCAG”, the binding signal was 8790 fluorescence intensity (a.u.).
With “GTTCTGTTGTATCCTTTCTTCACGGCAAACGCATGATTTTCGGAGTCACCTAGTGCAG” the figure was 9930 fluorescence intensity (a.u.).
With “GTTCCCAACCTCTGCCTCTCATGACTCATTTTCTGCGCGCCGGAGTCACCTAGTGCAG” the figure was 9910 fluorescence intensity (a.u.); with “ACGGGGACAGGTTTGTGATGTTTGATCACCTTTAAAATGCCGGAGTCACCTAGTGCAG”, 9000 fluorescence intensity (a.u.); with “GTACATTCTAAGGTCCCCATTGTTTGGCTTATTTCCTAATCGGAGTCACCTAGTGCAG”, 10900 fluorescence intensity (a.u.).
As for “CTGTCCAAATCCACCACCAGCTTCTTTCTTTCCATTTTGCCGGAGTCACCTAGTGCAG”, the binding signal is 10600 fluorescence intensity (a.u.).
Regarding “TATGTTCAGGCAATCTCTGAGTCTCGTCAACCTAATTAACCGGAGTCACCTAGTGCAG”, the binding signal is 8820 fluorescence intensity (a.u.).
With “TATCCTCCTACTTCCGTTACCTTTATAGTTCGCGTCCTCCCGGAGTCACCTAGTGCAG” the figure was 8720 fluorescence intensity (a.u.); with “CTTTTTTTTCTGAAGACTACACACACTAATAAAACACTAACGGAGTCACCTAGTGCAG”, 12200 fluorescence intensity (a.u.); with “ATTTGTCACTTTTAGGTTCGTCACTTATCCAAATGCTCCTCGGAGTCACCTAGTGCAG”, 8860 fluorescence intensity (a.u.).
With “CCCCTCCGCTAGTAATCACCGACTCTCCCCATTGTGTCACCGGAGTCACCTAGTGCAG” the figure was 8190 fluorescence intensity (a.u.); with “GATACTTAAAAACCGATGTCTTTTCTTTTCGAACATATCTCGGAGTCACCTAGTGCAG”, 10600 fluorescence intensity (a.u.); with “CCACCGCTGCCGGCGGCTTCCTCCCCACCGCCGTTGACCTCGGAGTCACCTAGTGCAG”, 10400 fluorescence intensity (a.u.).
Then “CGTCAGCATCTTCATCGACATGCCCACCGACGACTCCGGCCGGAGTCACCTAGTGCAG”, with 10500 fluorescence intensity (a.u.).
Regarding “AGGGCGCCGTCGTTCGTCATGCTGCTTCCGCCGCATCCTGCGGAGTCACCTAGTGCAG”, the binding signal was 9240 fluorescence intensity (a.u.).
With “AGAGGGGACTGGGGAGGGGAGGGGCGGCGCTCGCTGGCTTCGGAGTCACCTAGTGCAG” the figure was 17500 fluorescence intensity (a.u.).
For “CCGGATCCCGGTCCATCTCCACCGTCCATTCTCTCCCATCCGGAGTCACCTAGTGCAG”, the binding signal is 10400 fluorescence intensity (a.u.).
Then “GGAGATGGGGTAGGAAGGGGTATTTTAGTGTAAATACACTCGGAGTCACCTAGTGCAG”, with 9540 fluorescence intensity (a.u.).
Regarding “GTTTTCATTCCACTGATCACAGGCTATCTTTCCATGATATCGGAGTCACCTAGTGCAG”, the binding signal was 9520 fluorescence intensity (a.u.).
With “ACTACCTATCTATCCGCTTTCTCCGTACCGAGCAAACGGCCGGAGTCACCTAGTGCAG” the figure was 8350 fluorescence intensity (a.u.); with “ATCTCTTCTCTCCTCCACCTCACTATTTTAGCTTATGTGACGGAGTCACCTAGTGCAG”, 9610 fluorescence intensity (a.u.); with “ACTTGCCTTGTTTCTTGTTCTTGTTCATTTCGACCGTTGTCGGAGTCACCTAGTGCAG”, 17100 fluorescence intensity (a.u.).
With “TGTCCTTGCTCTAAGCAATTCGCCGCCTATGAGCTACAATCGGAGTCACCTAGTGCAG” the figure was 12100 fluorescence intensity (a.u.); with “CCAAGATAATCTCCTCTGCTTCAGAGTTCTTCCTTCTTCTCGGAGTCACCTAGTGCAG”, 9130 fluorescence intensity (a.u.); with “TGGCCACTTTGCCAGTTCGTCTTTGTTATTTTGAGTTCGGCGGAGTCACCTAGTGCAG”, 8300 fluorescence intensity (a.u.).
Regarding “CTCTAAGCATTACCTATATTTTTTATATTTGCACAATATTCGGAGTCACCTAGTGCAG”, the binding signal was 8520 fluorescence intensity (a.u.).
Then “AATCTTGGGCGACGGTTTGGTTTGTGGTGTACGTACGTGCCGGAGTCACCTAGTGCAG”, with 8960 fluorescence intensity (a.u.).
In the case of “TCTCTCGTGACTACAAATCCATTTCCACAACCCACATTTTCGGAGTCACCTAGTGCAG”, the binding signal was 10900 fluorescence intensity (a.u.).
Then “TTGTGGTTTTTCATTGTAGTTTATTTTACGACCTTTTCTTCGGAGTCACCTAGTGCAG”, with 9050 fluorescence intensity (a.u.); and “CGTCCCGCGACCAAATCTAGGTCTCGTCACACATATATCCCGGAGTCACCTAGTGCAG”, with 10000 fluorescence intensity (a.u.).
For “GGAGGGTGCTTTGAATATTTGACTGATACAGACCGTGAAACGGAGTCACCTAGTGCAG”, the binding signal was 13400 fluorescence intensity (a.u.).
Then “AGTTTTTTTGGTTTATGTGAGGTAGATATATGACTCAACTCGGAGTCACCTAGTGCAG”, with 10100 fluorescence intensity (a.u.); and “TCCATCTGGCGAGCAGAGCAGGGGAGGGGAGGGGATCCTGCGGAGTCACCTAGTGCAG”, with 10800 fluorescence intensity (a.u.); and “TCTATGTTGTGGCTTCTATGTCGATTGTGTTGGGTGTTGACGGAGTCACCTAGTGCAG”, with 8690 fluorescence intensity (a.u.).
In the case of “TCCTGCATCCTATACCACTCTATATCATTCCATCATATATCGGAGTCACCTAGTGCAG”, the binding signal was 8060 fluorescence intensity (a.u.).
For the sequence “AGCCTCCAAATCAACCCAGCTGTTCCAACACACACATGAACGGAGTCACCTAGTGCAG”, the binding signal was 8310 fluorescence intensity (a.u.).
With “TCCATCTTTCATGACCAATGTTTCGTTAATGGAGACTGACCGGAGTCACCTAGTGCAG” the figure was 9300 fluorescence intensity (a.u.); with “GTAACTTTAAGGACTCAGACCATATATTTCACTCTTCTTTCGGAGTCACCTAGTGCAG”, 9310 fluorescence intensity (a.u.).
Consider “CCTTGTCAATTCATTTTTAGGGTTTTATTTCTAATTAATTCGGAGTCACCTAGTGCAG”, for which the binding signal is 9820 fluorescence intensity (a.u.).
Turning to “GGTGGTTCTGTGAGCCCGCGGGGTTGGGGTTGGGGCCTGGCGGAGTCACCTAGTGCAG”, the binding signal was 12900 fluorescence intensity (a.u.).
On to “GGTATCACCGGTTGATATGCCATCCTTATAAGTTTCTCGACGGAGTCACCTAGTGCAG”, for which the binding signal is 8150 fluorescence intensity (a.u.).
Then “GTATCAACGGCGCCACCGTGCCACGTCGACGCCGACGCCGCGGAGTCACCTAGTGCAG”, with 8650 fluorescence intensity (a.u.).
